These are yes or no findings as the source states them, for the method shown. Some results given as binding are weak or reduced against the parent protein; the word gives no strength.

In one assay the target is anti-FIXa-arm of ACE910. Kind of assay: ELISA, hybridoma culture supernatant. (In general: In an ELISA, binding on a coated surface is turned into a signal by an enzyme label.)
A further assay addresses anti-FX-arm of ACE910. Kind of assay: ELISA, hybridoma culture supernatant.

B1: mouse antibody AQ8 (antibody, V domains shown)
VH: EVNLVESGGGLVQPGGSMSLSCAASGFTFTDYYMSWVRQPPGKALEWLALIRNKANGYTTEYSASVKGRFTISRDNSQSILYLQMNALRAEDSATYYCARDSYYSYDGYAMDYWGQGTSVTVSS
VL: DIQMTQSPASLAASVGETITITCQASENIYFSLAWYQQKQGKSPQLLIYNTDSLKDGVPSRFSGSGSGTQYSMKINSMQPEDTATYFCRQSYDFPWTFGGGTKLEIK
Turning to B1, the binding entry with anti-FIXa-arm of ACE910 is given as “binds”.

B2: rat antibody AJ540 (antibody, V domains shown)
VH: QIQLVQSGPELKKPGESVKISCKASGYTFTDYAMHWVKQVPGKGLKWMGWINTYTGKPTYADDFKGRFVFSLEASASTANLQISNLKNEDTANVFCAREGGGYYWYFDFWGPGTMVTVSS
VL: DIVMTQSPTSMSISVGDRVTMNCKANQNVDFNVDWYQQKTGQSPKLLIYKASNRYTGVPDRFTGSGSGTDFTFTISNMQAEDLAVYYCMQSNSFPLTFGSGTNLEIK
As for B2, in the assay with anti-FX-arm of ACE910, the binding entry is listed as “binds”.

The record behind these values is patent US20170275376A1.
